According to PMC5799093, “Proceedings of Réanimation 2018, the French Intensive Care Society International Congress” (Annals of Intensive Care, 2018):

Experiment: Hemodynamic and metabolic effects of molar sodium lactate infusion in critically ill patients (P-135)
Type: in vivo, human
Experimental: Patients and methods: This was a retrospective study performed in a large University Hospital. All patients receiving the molecule were included in the analysis. Indication for sodium lactate, dose, and modality of administration were collected. We also collected clinical and biological variables before sodium lactate infusion, after 6 h (H6), and after 24 h (H24). An analysis of the evolution of these variables at H6 and H24 was performed.

For `CC(O)C(=O)[O-].[Na+]` (stereo not shown) [sodium lactate], the plasma lactate concentration (at H6, p < 0.0001) was “increased”, the plasma lactate concentration (at H24, p = 0.99) was “not different from basal value” and the chloride sodium ratio (human, in vivo) was “significantly reduced”. The plasma chloride (human, in vivo) was “no significant variation”.
